# Measured data: PubChem BioAssay AID1259308 (NCATS, 2017)
# Purpose: 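Candidate targets for better recombinant protein yield in mammalian cells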 (primary screen)
# Cells: human HEK293 embryonic kidney cells stably expressing firefly luciferase (HEK-CMV-Luc2-Hygro)
# Reagent: single siRNA against human genes, 0.8 pmol siRNA per well
# Timing: 72 h
# Detection: 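Luciferase light (ONE-Glo) measured on one replicate plate set and viability (CellTiter-Glo) on the other, scaled to a negative control siRNA, with robust z-scores and luciferase per cell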
# Reading the numbers: total luciferase, z-score and total luciferase, % of control: higher = more reporter protein produced; luciferase per cell, z-score: higher = more reporter output per viable cell; viable cells, % of control: higher = more viable cells
# Rule for the call: 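An siRNA counts as active if its total luciferase robust z-score exceeds 3; genes with two or more such siRNAs out of three were retested with fresh siRNAs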
# Meaning of the calls: active = raised luciferase; inactive = no rise
# Shown is a random part of about 59,000 deposited reagents. About 1,510 of them (2.6%) count as active. 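Calls use total luciferase alone and ignore viability, so some active siRNAs may act by altering cell number.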 Entries without a mark were called inactive. Reagents against one gene are numbered here.
gene,reagent,"total luciferase, z-score","total luciferase, % of control","luciferase per cell, z-score","viable cells, % of control"
TREM1,1,-0.268,76.6,-0.125,88.4
TREM1,2,0.633,94.5,0.86,84.2
TREM1,3,2.26,127,1.56,94
OAS1,1,3.55 (active),153,2.53,87.5
OAS1,2,-0.975,62.5,-1.37,100
OAS1,3,2.18,125,2.47,72.9
TUBA8,1,0.0756,83.4,0.747,76.5
TUBA8,2,-0.486,72.2,-0.659,96
TUBA8,3,-0.791,66.2,-1.17,101
ARHGAP44,1,-0.835,65.3,-0.141,75.7
ARHGAP44,2,1.8,118,1.46,89.5
ARHGAP44,3,0.653,94.9,1.19,77.5
GPER1,1,1.62,114,2.17,72
GPER1,2,-1.03,61.5,-0.713,82.9
GPER1,3,-0.662,68.7,-0.81,95
CCL21,1,3.04 (active),142,2.31,86.6
CCL21,2,1.19,106,0.0975,115
CCL21,3,1.06,103,0.774,93.9
CAMKK2,1,-0.112,79.7,0.497,78.1
CAMKK2,2,2.76,137,2.01,90.1
CAMKK2,3,2.15,125,1.42,96
LRRK1,1,0.185,85.6,0.556,82.6
LRRK1,2,-0.596,70,-0.797,96.6
LRRK1,3,-0.448,73,-1.29,114
MIXL1,1,2.11,124,2.33,75
MIXL1,2,-0.706,67.8,-1.02,99.3
MIXL1,3,-0.175,78.4,-0.239,93.3
SF3A1,1,3.58 (active),153,4.77,48.8
SF3A1,2,2.32,128,4.58,42.8
SF3A1,3,0.0376,82.6,2.56,47.1
PMS2P3,1,-0.922,63.6,-1.2,97.5
PMS2P3,2,-0.707,67.8,-1.25,105
PMS2P3,3,-1.78,46.5,-2.24,93.8
FERD3L,1,0.33,88.5,0.872,78.6
FERD3L,2,-0.179,78.3,-0.412,97.5
FERD3L,3,2.94,140,1.93,94.5
FOXJ3,1,0.772,97.2,1.44,74.5
FOXJ3,2,-0.00789,81.7,0.578,78.4
FOXJ3,3,0.0586,83.1,-0.165,96.9

3 of these entries, reformatted:
{"gene":"SF3A1","reagent":1,"total luciferase, z-score":"3.58 (active)","total luciferase, % of control":153,"luciferase per cell, z-score":4.77,"viable cells, % of control":48.8}
{"gene":"SF3A1","reagent":2,"total luciferase, z-score":2.32,"total luciferase, % of control":128,"luciferase per cell, z-score":4.58,"viable cells, % of control":42.8}
{"gene":"SF3A1","reagent":3,"total luciferase, z-score":0.0376,"total luciferase, % of control":82.6,"luciferase per cell, z-score":2.56,"viable cells, % of control":47.1}
